Measured values published in article PMC7368280.
Results are given in words; binding and its absence hold for the method and conditions named. In cells and extracts the contact can be indirect. Here binding means that the protein was enriched with, or labelled near, the bait; the list need not be complete. Tags and fused reporters may be left off the sequences shown.

Key:
[1] = molecular target: T1, ICU11-eGFP (gICU11-GFP in icu11-3) (Arabidopsis), Q3ED68; assay: affinity purification with mass spectrometry; coIP-MS with GFP-tagged baits from Arabidopsis plants (gICU11-GFP icu11-3; 35S:GFP-CLF clf-50; gSWN-GFP), control 35S::GFP; two independent experiments; procedure in SI Appendix; conditions: remark: other sources report otherwise
T1 chain: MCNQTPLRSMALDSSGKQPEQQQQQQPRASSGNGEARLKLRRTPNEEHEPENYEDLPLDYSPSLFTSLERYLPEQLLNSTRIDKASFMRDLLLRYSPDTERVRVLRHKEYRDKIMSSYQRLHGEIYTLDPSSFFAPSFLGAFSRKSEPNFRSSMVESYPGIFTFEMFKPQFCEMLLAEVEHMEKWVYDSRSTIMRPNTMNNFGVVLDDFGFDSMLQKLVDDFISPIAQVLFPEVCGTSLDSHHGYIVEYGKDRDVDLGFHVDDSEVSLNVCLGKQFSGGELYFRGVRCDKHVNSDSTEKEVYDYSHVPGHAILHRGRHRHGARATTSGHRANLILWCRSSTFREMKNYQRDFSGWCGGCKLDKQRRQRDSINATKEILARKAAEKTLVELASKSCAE

[2] = molecular target: T2, ICU11-3xHA (gICU11-HA in icu11-3) (Arabidopsis), Q3ED68; assay: affinity purification with mass spectrometry; coIP-MS with 3xHA-tagged ICU11 as bait from Arabidopsis plants (gICU11-HA icu11-3), control icu11-3; two independent experiments; procedure in SI Appendix; conditions: remark: other sources report otherwise
T2 chain: T1 chain

B1: JMJ14, Q8GUI6 1-954 (protein)
chain: MDQLASLAESVAMEEDSEKQSIKGESSLEPDSTPSSPKITARWNPSEACRPLVDDAPIFYPTNEDFDDPLGYIEKLRSKAESYGICRIVPPVAWRPPCPLKEKKIWENSKFPTRIQFIDLLQNREPIKKSTKTKKRKRRRISKIGYTRRKRDSGCDTASSGSSDSEGKFGFQTGPDFTLEEFQKYDEYFKECYFQSEDHPGSKASENKKFKPKVKDLEGEYWRIVEQATDEVEVYYGADLETKKFGSGFPKYKPGYPISEADQYSQCGWNLNNLSRLPGSVLAFESCDISGVIVPWLYVGMCFSTFCWHVEDHHLYSMNYLHTGDPKVWYGIPGNHAESFENVMKKRLPDLFEEQPDLLHQLVTQLSPRILKEEGVPVYRAVQRSGEFILTFPKAYHSGFNCGFNCAEAVNVAPVDWLVHGQNAVEGYSKQRRKSSLSHDKLLLGAAMEATYCLWELSLSKKKTPVIARWKRVCSEDGLLTKAVKKRVQMEEERLNHLQDGFSLRKMEGDFDNKRERECFLCFYDLHMSASSCKCSPNRFACLIHAKDLCSCESKDRYILIRHTLDELWALVRALEGDLDAIDLWASKCRDQYPSQHPRAREYAYLKSAPCIKSRGSSKVQQREQNNLQLVSERLQSDLTSNKEVQLKQDGDSDVNRHGHESERNHVHGITDKSAVTDVKLGVGGKFDEKKISVESQNPHSVSDVGCSELAKKVDGCLGGKDQNAATNRLSLSVELLSSGSLVVKKLWCSKQAIYPKGFKSRVKFLSVLDPTNLTNYISEVLDAGLLGPLFRVSVEDYPTENFSNVSAEKCWQMVTQRLKLEIIKKCDQPVSSLTSLQPLESINGLEMFGFLSPHVIKVVEALDPKHQLEEYWNQKAVKLFGAEPIKEGEKDDTEKGGASDPSLDRDTRLLRGLLKKATPEELVMMHGLLCGETRNTELKEELSTLVDKMEISP
**Q.** B1 was tested. Which binding [1] did it give?
**A.** binds

**Q.** What about the binding [2] of the same binder?
**A.** binds
